The exact form of at least one protein or probe is not confirmed. No signal at the amounts used counts as a negative.
System: His-GmPGL2
Experiment: EMSA
Conditions: 2x binding buffer: 100 mM Na phosphate pH 7.5, 10 units RNasin, 0.1 mg/ml BSA, 10 mM DTT, 2.5 mg/ml heparin, 300 mM NaCl, 25 C, 30 min, recombinant protein, protein details: His (pCold vector), label: 3' 6-FAM
[1] = shift reduced by 5, 10, 50 pmol unlabeled competitor

Sequence: ACUAUCAGGUUUUUUCGGAAAACUUCAUUUAUUCU [ndhB-141424 probe]
- binding result [1]: binds

Sequence: CUAGGAACUUUUGCUUGCAUUGUAUCAUUUGGUCU [ndhB-141281 probe]
- binding result [1]: binds

Sequence: CCUACAGGAACUGUUCAGGACAUUUCAAAAAGGGC [rps16-56313 probe]
- binding result [1]: binds

Sequence: AAAUAUCAUUUGAUUCGCCGAUCCUCAAAAAAAGA [rps14 probe]
- binding result: no binding

From article PMC8458969
